PubChem BioAssay AID743456 | Peter MacCallum Cancer Centre, 2014
Aim: 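Identify miRNAs tied to vorinostat resistance or sensitivity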 (primary screen). System: human HCT116-VR colon cancer cells, a vorinostat-resistant HCT116 line. Reagents: miRNA mimic. Duration: about 3 days from transfection to readout; drug present for the last 24 h. Treatment: vorinostat at 2.5 µM final for 24 h. Measurement: 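Per-well live-cell protease fluorescence and caspase luminescence under 2.5 µM vorinostat for 24 h, scored as robust z-scores and against mock transfection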. Direction: viability robust z-score: higher = more viable cells; caspase robust z-score: higher = more caspase activity, more apoptosis. Hit rule: 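a mimic counts as active if it lands in a lowered-viability class or a caspase-activation class; wells with too few cells without drug are left out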.
This is one part, drawn at random, of 878 deposited reagents. 27 of them (3.1%) were called active. 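27 mimics are marked active, unlike an earlier stated count of 24; the viability threshold is described inconsistently.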 A number with no mark means an inactive call. Not all columns of the deposit are shown. Not given: the amount of reagent.

hsa-miR-1307 scored viability robust z-score -0.57; caspase robust z-score 0.52; viability hit class no change; caspase hit class no change. For hsa-miR-935, the entry reads viability robust z-score -0.54; caspase robust z-score -0.34; viability hit class no change; caspase hit class no change. hsa-miR-218-2* gave viability robust z-score -0.57; caspase robust z-score 0.82; viability hit class no change; caspase hit class no change. hsa-miR-218-1* showed viability robust z-score -1.52; caspase robust z-score 1.48; viability hit class no change; caspase hit class no change. hsa-miR-185 showed viability robust z-score -1.68; caspase robust z-score 2.46; viability hit class no change; caspase hit class no change. hsa-miR-30e* showed viability robust z-score -0.96; caspase robust z-score -0.84; viability hit class no change; caspase hit class no change.

For hsa-miR-1207-5p the deposit lists viability robust z-score -1.67; caspase robust z-score 0.05; viability hit class no change; caspase hit class no change. hsa-miR-541 showed viability robust z-score -2.45; caspase robust z-score 3.03; viability hit class no change; caspase hit class no change.

In a second layout: 2 of the entries above.
hsa-miR-1207-5p
- viability robust z-score: -1.67
- caspase robust z-score: 0.05
- viability hit class: no change
- caspase hit class: no change

hsa-miR-541
- viability robust z-score: -2.45
- caspase robust z-score: 3.03
- viability hit class: no change
- caspase hit class: no change

Further records:
For hsa-miR-485-3p the deposit lists viability robust z-score 0.15; caspase robust z-score -0.05; viability hit class no change; caspase hit class no change. For hsa-miR-1973, the values are viability robust z-score 0.1; caspase robust z-score -0.56; viability hit class no change; caspase hit class no change. hsa-miR-194* showed viability robust z-score -0.04; caspase robust z-score -0.25; viability hit class no change; caspase hit class no change. hsa-miR-33b* showed viability robust z-score -0.32; caspase robust z-score 1.29; viability hit class no change; caspase hit class no change.
